Results on 1 molecule are retold here after PubChem BioAssay AID720607 (Broad Institute, 2013).

This assay can be described thus: CCRF-CEM leukemia cell viability loss, dose response, HRAS target identification, CellTiter-Glo ATP luminescence, 8/24/48 h, dry powder (AID 720607). To be noted: 8-48 h, top conc, at 35 µM, stronger effect = lower value.

Each structure is given as a SMILES string. The list shows a part of the results. The main result of the screen is listed elsewhere. These columns were measured beside it and carry no call. Compounds called inactive in the main read-out are mostly missing here.

With `CCC(=O)N(c1ccc(OC)c(Cl)c1)C(C(=O)NCCc1ccccc1)c1cccs1` (configuration not stated), the activity change (8 h series) was -5.22% and the activity change (24 h series) is -35.2%.
